Assay results published in PubChem BioAssay AID330 (DTP/NCI, 2004).
The list is a part of this screen's results and no random one: it is rich in T/C values a quarter to a half above the control, in often repeated tests (any T/C) and in doses without a T/C. Other doses and runs of a compound stand elsewhere. T/C is the treated group as % of the vehicle group. Some doses have a count of surviving animals in place of a T/C: the source files T/C as zero there, which appears to mark a toxic dose or a test without result, not a measured value. Some doses without a T/C left all or most animals alive at the check, yet need not have been tolerated: survival well below the control is almost never listed, so the zero probably covers shortened survival too. Counts of survivors are from the toxicity check (mostly the fifth day) where no day follows; animals may have died later. Schedule codes are those of the source, read here as Q, the interval in days (D) or hours (H), X, the number of doses. Some entries hold several experiments; the results are listed from low to high. For survival time, the PubChem record calls one and a half times the control and up active, and a quarter to a half above the control has no call in these data; cut-offs in other NCI protocols can differ. Some T/C values are followed by the survivors on the day toxicity was checked, most often the fifth; where none is given, no animal had died by that day.

Tested on: P388 leukemia ip, CD2F1 mice, survival T/C
Assay: NCI In Vivo Anticancer Drug Screen. Data for tumor model P388 Leukemia (intraperitoneal) in CD2F1 (CDF1) mice
Conditions: T/C endpoint: median survival time, higher T/C = longer survival
[1] = dose: 12.5 mg/kg/injection, schedule: Q01DX005 (ip), vehicle: saline with Tween-80
[2] = dose: 50.0 mg/kg/injection, schedule: Q01DX005 (ip), vehicle: saline with Tween-80
[3] = dose: 100.0 mg/kg/injection, schedule: Q01DX005 (ip), vehicle: saline with Tween-80
[4] = dose: 200.0 mg/kg/injection, schedule: Q01DX005 (ip), vehicle: saline with Tween-80
[5] = dose: 240.0 mg/kg/injection, schedule: Q01DX005 (ip), vehicle: saline with Tween-80
[6] = dose: 12.5 mg/kg/injection, schedule: Q01DX009 (ip), vehicle: saline with Tween-80
[7] = dose: 25.0 mg/kg/injection, schedule: Q01DX009 (ip), vehicle: saline with Tween-80
[8] = dose: 50.0 mg/kg/injection, schedule: Q01DX009 (ip), vehicle: saline with Tween-80
[9] = dose: 200.0 mg/kg/injection, schedule: Q01DX009 (ip), vehicle: saline
[10] = dose: 400.0 mg/kg/injection, schedule: Q04DX003 (ip), vehicle: saline with Tween-80

## NC(=O)C1OC(n2cnc3c(N)ncnc32)C(O)C1O (stereo not drawn)
[1]
  T/C: 127 % of control
  survivor count: 1 of 6 and 4 of 6
dose: 25.0 mg/kg/injection, schedule: Q01DX005 (ip), vehicle: saline with Tween-80
  survivor count: 0 of 6
[2]
  survivor count: 0 of 6
[3]
  survivor count: 0 of 6
[4]
  survivor count: 0 of 6

## O=C1OC(OC/C(Br)=C(\Br)COC2OC(=O)C(Cl)=C2Cl)C(Cl)=C1Cl (stereo not drawn)
dose: 60.0 mg/kg/injection, schedule: Q01DX005 (ip), vehicle: saline with Tween-80
  survivor count: 4 of 6
dose: 120.0 mg/kg/injection, schedule: Q01DX005 (ip), vehicle: saline with Tween-80
  survivor count: 2 of 6
[5]
  survivor count: 3 of 6

## Clc1c(Cl)c2c(Cl)c(Cl)c1C[P+](c1ccccc1)(c1ccccc1)CC[P+](c1ccccc1)(c1ccccc1)Cc1c(Cl)c(Cl)c(c(Cl)c1Cl)C[P+](c1ccccc1)(c1ccccc1)CC[P+](c1ccccc1)(c1ccccc1)C2
[6]
  survivor count: 0 of 6
[7]
  survivor count: 0 of 6
[8]
  survivor count: 0 of 6

## Cn1c(=O)c2c(nc([N+](=O)[O-])n2C)n(C)c1=O
dose: 400.0 mg/kg/injection, schedule: Q04DX003 (ip), vehicle: saline
  survivor count: 0 of 6

## COC(=O)C(CSCc1ccccc1)NC(=O)C(CSCc1ccccc1)NC(=O)CCNC(=O)c1ccccc1 (stereo not drawn)
dose: 200.0 mg/kg/injection, schedule: Q01DX009 (ip), vehicle: distilled water + Tween-80
  T/C: 125 % of control

## COc1ccc2c(c1)OC1CC2NC(N)=N1 (stereo not drawn)
dose: 50.0 mg/kg/injection, schedule: Q01DX009 (ip), vehicle: saline
  survivor count: 0 of 6
dose: 100.0 mg/kg/injection, schedule: Q01DX009 (ip), vehicle: saline
  survivor count: 0 of 6
[9]
  survivor count: 0 of 6

## CNC(=O)OCc1c(COC(=O)NC)c(-c2ccc(Cl)cc2)n(C)c1C
dose: 6.25 mg/kg/injection, schedule: Q01DX009 (ip), vehicle: distilled water + Tween-80
  T/C: 142 % of control
dose: 50.0 mg/kg/injection, schedule: Q01DX009 (ip), vehicle: distilled water + Tween-80
  survivor count: 5 of 6 and 6 of 6
dose: 100.0 mg/kg/injection, schedule: Q01DX009 (ip), vehicle: distilled water + Tween-80
  survivor count: 0 of 6 and 2 of 6

## CC(C)(C)OC(=O)NC(CCCCNC(=O)OCc1ccccc1)C(=O)O (stereo not drawn)
dose: 200.0 mg/kg/injection, schedule: Q01DX005 (ip), vehicle: distilled water + Tween-80 + alcohol
  survivor count: 3 of 5

## O=c1c2ccccc2oc2cc3c(c(O)c12)CCCC3
[2]
  survivor count: 6 of 6
[3]
  survivor count: 6 of 6
[4]
  survivor count: 6 of 6

## O=C(Nc1ccc(Br)c2c(NC(=O)c3ccccc3)ccc(Br)c12)c1ccccc1
dose: 6.25 mg/kg/injection, schedule: Q01DX009 (ip), vehicle: saline with Tween-80
  survivor count: 6 of 6
[6]
  survivor count: 6 of 6
[7]
  survivor count: 6 of 6
[8]
  survivor count: 6 of 6
dose: 100.0 mg/kg/injection, schedule: Q01DX009 (ip), vehicle: saline with Tween-80
  survivor count: 6 of 6

## CC(C)N1CSC(=S)N(Cc2ccccc2)C1
dose: 200.0 mg/kg/injection, schedule: Q01DX009 (ip), vehicle: saline with Tween-80
  survivor count: 1 of 6
dose: 400.0 mg/kg/injection, schedule: Q01DX009 (ip), vehicle: saline with Tween-80
  survivor count: 0 of 6

## COc1ccc(CCn2cnn3c(=O)c4ccccc4nc3c2=O)cc1OC
[5]
  survivor count: 6 of 6

## Cc1cccc(C)c1NC(=S)N1CCC(CCCC2CCN(C(=S)Nc3c(C)cccc3C)CC2)CC1
[10]
  survivor count: 6 of 6

## Oc1cc(O)c(-c2c(O)cc(O)cc2O)c(O)c1 (tested in a mixture with another compound)
dose: 100.0 mg/kg/injection, schedule: Q01DX005 (ip), vehicle: saline
  survivor count: 2 of 6
dose: 200.0 mg/kg/injection, schedule: Q01DX005 (ip), vehicle: saline
  survivor count: 0 of 6

## N#CC(C#N)(c1ccccc1)N1CCOCC1
[10]
  survivor count: 0 of 6

## Nc1ccccc1/C=C/c1ccnc2ccccc12
dose: 25.0 mg/kg/injection, schedule: Q01DX001 (ip), vehicle: Klucel (hydroxypropylcellulose) (HPC)
  T/C: 127 % of control
dose: 50.0 mg/kg/injection, schedule: Q01DX001 (ip), vehicle: Klucel (hydroxypropylcellulose) (HPC)
  T/C: 125 % of control
dose: 100.0 mg/kg/injection, schedule: Q01DX001 (ip), vehicle: Klucel (hydroxypropylcellulose) (HPC)
  T/C: 145 % of control [4 of 6 alive]
dose: 200.0 mg/kg/injection, schedule: Q01DX001 (ip), vehicle: Klucel (hydroxypropylcellulose) (HPC)
  survivor count: 0 of 6

## COC1C(=O)OC(=O)C1OC (stereo not drawn)
dose: 120.0 mg/kg/injection, schedule: Q01DX005 (ip), vehicle: saline
  survivor count: 6 of 6
dose: 240.0 mg/kg/injection, schedule: Q01DX005 (ip), vehicle: saline
  survivor count: 6 of 6

## CC(/C=N\NC(=S)SCc1ccccc1)=N/N=C(N)N
[9]
  survivor count: 4 of 6
